Results of single-concentration screens

Source: ChEMBL document CHEMBL3988442, “University of Dundee, Small-Polar-MMV Screening Library” (2021).

A: 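Whole-cell growth test on Mycobacterium tuberculosis, read after 4 days in a medium based on cholesterol and the lipid DPPC; the read-out is not stated. Tested at 50 µM. Direction is inferred from retests: higher values go with more growth inhibition. Of about 69,000 compounds tested this way, about 370 (0.54%) reached 50% or more in at least one test.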
B: 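Whole-cell growth test on Mycobacterium tuberculosis, read after 3 days in glucose-containing 7H9 medium; the read-out is not stated. Concentration: 50 µM. Higher reads as more growth inhibition (inferred: compounds with an IC50 in retests scored well above the rest). Size under these conditions: about 69,000 compounds, about 760 of them at 50% or above in at least one test.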

Each number is a percent effect as filed.
The controls that fix the scale are not given in the record; negative values are as filed.
This is an unselected part of the compounds tested.
Two or more numbers in one place are separate tests of the same structure; such repeats can differ widely.

| Compound | A | B |
|---|---|---|
| `CC(C)(C)c1ccn(C2(C(=O)O)CCN(c3ncccc3C#N)CC2)n1` | 5.529% | 26.31% |
| `O=C(c1ccccn1)N1CCC(c2nccn2Cc2ccncc2)CC1` | 2.98% and 3.24% | 5.408% |
| `CCN(CC)S(=O)(=O)c1csc(C(=O)N2CCC(C(N)=O)CC2)c1` | 7.926% | -18.91% |
| `[H][C@@]12CCN(Cc3ccc(C)o3)C[C@@]1([H])O[C@H](c1nc(C3CC3)cs1)C2` | -18.62% | 6.785% |
| `CCC(CNC(=O)Cc1c(C)noc1C)N1CCCC1` (stereo not drawn) | -19.64% | -9.941% |
| `O=C(c1ccsc1)N1CCC2(CCN2Cc2ccc(F)cc2)C1` (stereo not drawn) | -7.398% | -18.68% and 2.575% |
| `CC(CNS(C)(=O)=O)Oc1cccc(Cl)c1` (stereo not drawn) | -15.22% | 5.059% |
| `Cc1ccc(C)c(C(O)Cn2cc(Cl)c(=O)[nH]c2=O)c1` (stereo not drawn) | -28.54% | -6.471% |
| `Cc1cccc(C)c1NC(=O)NCC1CCCN(C2CCOCC2)C1` (stereo not drawn) | -5.529% | 5.497% |
| `CN(C)c1cc2c(nn1)CCN(C(=O)C1Cc3ccccc3S1)C2` (stereo not drawn) | 26.01% | 25.19% |
| `O=C(c1cccc(Cl)c1Cl)N1CCN(CC(O)Cn2cccn2)CC1` (stereo not drawn) | 7.353% | -4.718% |
| `Cc1nn(C(C)C)c(C)c1S(=O)(=O)Nc1cccc(C(=O)O)c1` | 11.16% | 10.1% |
| `CCOCC(=O)NCCc1ccc(I)s1` | 24.1% | 10.21% |
| `CC(C)n1ccnc1C1CCCN(c2ccccn2)C1` (stereo not drawn) | 0.327% | -18.27% |
| `Cc1nc(C)n(CC2CN(CCOCC(F)(F)F)CCO2)n1` (stereo not drawn) | -9.317% | -9.021% |
| `CCc1nc(N2CCC3(CC2)CC(=O)N(Cc2ccc(Cl)cc2)C3)no1` | 5.498% | 13.63% and -4.881% |
| `Cc1nc(C)n(CC2CCCN(CCOc3cccc(C#N)c3)C2)n1` (stereo not drawn) | -84.09% | -74.79% |
| `O=C(O)C(F)(F)F.O=C(O)C(F)(F)F.[H][C@@]12OCCN(c3cc(OC)ncn3)[C@@]1([H])CC[C@@H]2Oc1cccnc1` | -0.4928% | -12.98% |
| `COc1cccc(CN2CCCC3(CCN(C(=O)[C@H]4CCCO4)C3)C2)c1` (stereo partly drawn) | 23% | 5.963% |
| `CCc1nccn1C1CCCN(C(=O)c2cc[nH]n2)C1` (stereo not drawn) | 4.219% | -11.6% |
| `COc1cccc(CNCC2CCN(CC(C)O)CC2)c1OC` (stereo not drawn) | -6.172% | 1.249% |
| `CC(C)C1CN(S(C)(=O)=O)CCCN1Cc1ccc(F)cc1` (stereo not drawn) | -12.4% | 2.948% and 6.492% |
| `CC(C)(C)CC1CCCN1Cc1nc(-c2ccco2)no1` (stereo not drawn) | 7.275% | 18.05% and -4.007% |
| `Cc1nc2cc(C(=O)N3CCCC(n4ccnc4)C3)ccc2n1C` (stereo not drawn) | -6.103% | -8.623% |
| `COCCN1CCCC(O)(CN2CCN(Cc3ccncc3)CC2)C1=O` (stereo not drawn) | -16.62% | -19.31% |
| `CCC(C)(NCC(=O)Nc1ccccc1)c1nc(C)cs1` (stereo not drawn) | 15.4% | 39.09% |
| `Cc1oc(-c2cccc(F)c2F)nc1CN(CCO)C(C)C` | 4.872% | 20.91% |
| `COC(=O)CCn1ccc(=O)c2cc(F)ccc21` | -16.12% | 1.529% |
| `CCOc1ccccc1CNC(=O)N1CCC(n2cncn2)CC1` | 3.278% | 28.7% |
| `O=C(COc1ccc2c(c1)CCC2)N1CCCC1c1ccc[nH]1` (stereo not drawn) | 1.403% | 22.74% |
| `O=C1NCC2(CCCN(C(=O)c3ccc4c(c3)CCCO4)CC2)O1` (stereo not drawn) | -15.23% | 8.353% |
| `CCc1cc(C(=O)N2CCC(c3cc4ncccc4cn3)CC2)on1` | 16.47% | 0.4906% |
| `COc1cccc(-c2nc(C)c(C(=O)N[C@@H](CCSC)C(=O)O)s2)c1` | 11.96% | -10.05% |
| `CNC(=O)C(C)CNC(=O)c1coc(COc2cccc(F)c2F)n1` (stereo not drawn) | -19.79% | 20.38% |
| `Fc1cccc(-n2cc(CN3CCCCC3CCn3ccnc3)cn2)c1` (stereo not drawn) | -5.214% | -7.534% |
| `COCCOCC(=O)NCCCOC1CCCc2ccccc21` (stereo not drawn) | -40.53% | -5.522% and -57.27% |
| `COc1ccc(-c2noc(CN3CC(n4cccn4)C3)n2)c(OC)c1` | -8.323% | 3.389% |
| `CN1CCC(N(C)C[C@H]2CC[C@@H](Cc3ccc4occc4c3)O2)CC1` | 1.767% | 14.51% |
| `FC(F)(F)Oc1cccc(CNCc2ccc(-n3cncn3)nc2)c1` | 26.37% | 21.24% |
| `Cc1ccsc1[C@@H]1CCN(C(=O)CCc2n[nH]c(C)c2C)C[C@H]1O` | -11.21% | -1.489% and 15.25% |
| `CN(Cc1ccco1)C(=O)CN1CCCCC1Cn1cccn1` (stereo not drawn) | -13.5% | -4.061% |
| `CCCNC(=O)c1cccc(CNCc2csc(CC)n2)c1` | -23.23% | -31.63% |

4 of the entries, repeated:

| Compound | A | B |
|---|---|---|
| `Fc1cccc(-n2cc(CN3CCCCC3CCn3ccnc3)cn2)c1` (stereo not drawn) | -5.214% | -7.534% |
| `Cc1oc(-c2cccc(F)c2F)nc1CN(CCO)C(C)C` | 4.872% | 20.91% |
| `CCc1nccn1C1CCCN(C(=O)c2cc[nH]n2)C1` (stereo not drawn) | 4.219% | -11.6% |
| `Cc1ccsc1[C@@H]1CCN(C(=O)CCc2n[nH]c(C)c2C)C[C@H]1O` | -11.21% | -1.489% and 15.25% |